## Results of single-concentration screens

From ChEMBL document CHEMBL3988442, “University of Dundee, Small-Polar-MMV Screening Library” (2021).

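Assay of Toxoplasma gondii numbers, read through their beta-galactosidase reporter with a colour substrate. Compounds at 50 µM. Higher reads as fewer parasites (inferred from which compounds were picked for retests). Of about 18,000 compounds tested this way, about 170 (0.94%) reached 50% or more in at least one test.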

Values are the deposited “Percent Effect”, in %.
How 0% and 100% were set is not recorded. Most values in the screen are low, and negative values occur.
The compounds are a random part of those screened.

COCc1cccc(S(=O)(=O)N2CCOCC2)c1 gave 3.838%. Result for CCn1ccc(CN2CCCN(S(C)(=O)=O)CC2)n1 was 9.402%. CNc1snc(C)c1C(=O)N1CCN(C2CC2)CC1 gave 15.9%. CCCS(=O)(=O)N(C)Cc1ccc(OCC)cn1 read -5.939%. With COCCNC1CCCSC1 (stereo not shown) the screen gave -2.662%. For CCCN1CCC(CNC(=O)Cc2cc(C)no2)C1 (stereo not shown) the result was 5.459%. NC1CCC(Oc2cnccn2)CC1 (stereo not shown) read -7.513%.

For CCCn1cc(CNC(=O)C2CCOC2)cn1 (stereo not shown) the result was 5.998%. Cc1nc(C2CCN(CC3CCOC3)CC2)no1 (stereo not shown) gave 9.328%. For COCCSC(C)C(=O)NC1(C#N)CCCCC1 (stereo not shown) the result was 0.5945%. For CCC(=O)NC1CCN(C(=O)c2ccco2)CC1 the result was -8.488%. Result for CSCC(=O)N1CC(C(N)=O)Oc2ccccc21 (stereo not shown) was 2.176%. With CC(=O)Nc1ncn(Cc2ccc(C#N)cc2)n1 the screen gave 0.5841%. For CCOc1cc(C)ccc1CN the result was 2.588%.

For COc1ccc(Cc2[nH][nH]c(=O)c2CCN)cc1 the result was 25.65%. CC(C)Oc1ccc(C(CN)N(C)C)cc1 (stereo not shown) gave 23.86%. With Cc1n[nH]cc1CNCC(=O)NC(C)C the screen gave -11.39%. Result for CCOCCNC(=O)N1CCN(S(C)(=O)=O)CC1 was -3.545%. O=C(Cn1cnc2sccc2c1=O)NCC(F)(F)F gave -1.191%. For COCCNC(=O)[C@@H](N)CC(C)C the result was 22.11%. CN(C)c1ccnc(C(=O)NC(C)(C)CC(N)=O)c1 gave -17.52%.

C[C@@H]1CN(C(=O)CCc2cnn(C)c2)C[C@]1(C)O gave -7.72%. Result for CC(C)(C)C(=O)NCC(=O)N1CCOCC1 was -8.963%. Result for CC(CNC(=O)c1cccc(OC(F)F)c1)N(C)C (stereo not shown) was -0.9989%. Result for CCN(C)C(=O)c1ccc(-n2cncn2)cc1 was -3.184%. With CCC(CC)C(CNC(=O)c1ccc(O)nc1)N(C)C (stereo not shown) the screen gave -14.36%. For COc1cccc(NC(=O)N2CCN(C3CC3)CC2)c1 the result was -11.64%. CO[C@@H]1CCOC[C@H]1NC(=O)CCc1ccccn1 gave 10.79%.

Some entries from above, unchanged:

{"compound": "Cc1nc(C2CCN(CC3CCOC3)CC2)no1", "stereo": "stereo not shown", "percent effect": 9.328}
{"compound": "CCC(CC)C(CNC(=O)c1ccc(O)nc1)N(C)C", "stereo": "stereo not shown", "percent effect": -14.36}
{"compound": "O=C(Cn1cnc2sccc2c1=O)NCC(F)(F)F", "percent effect": -1.191}